Measured values taken from PubChem BioAssay AID1347076 (National Center for Advancing Translational Sciences (NCATS), 2019).
In all, about 400,000 compounds went through this assay and about 13,000 (3.2%) were called active. The inconclusive results got no clear call from the source; some entries with a clear call stand among them for comparison. The call rests on the fitted dose curve; in most records, active means well fitted cell-killing curve with a large enough effect; inconclusive means small, poorly fitted or top-dose-only effect, or effect the other way; inactive means flat fitted curve, though single readings scatter. Potencies of inconclusive entries are doubtful fits and often do not repeat.
Potency means the concentration at half of the fitted maximal effect.

Experiment: qHTS assay for MDR1-selective chemotherapeutics: Primary screen using the drug-selected MDR subline cells KB-V1; further: nearly all actives have a fitted effect of over 60% in size
Conditions: KB-V1 MDR cells viability, CellTiter-Glo, 72 h; series mostly up to 46.1 µM
Outline: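 KB-V1, DMEM (no phenol red) + 10% FBS; cpd pin-transferred, titration series; 72 h, 37 degrees C; CellTiter-Glo, luminescence. Data normalized, curve-fit.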
In the case of `Cc1ccc(Nc2c(-c3ccc(C)o3)nc3cccc(C)n23)cc1`, the Potency is reported as “inactive”.
For `Cc1[nH]n(-c2ccc(Br)cc2)c(=O)c1C=Nc1ccc(S(=O)(=O)Nc2nccs2)cc1`, the Potency was inconclusive: 14.6 µM [cytotoxic, single point].
With `COc1ccccc1CNC(=O)CC1Sc2ccccc2NC1=O` (centres undefined) the Potency was inconclusive: 16.4 µM [cytotoxic, single point].
With `O=c1c2oc3ccccc3c2n(Cc2ccc(Cl)cc2)c(=O)n1Cc1ccccc1` the Potency was inconclusive: 32.6 µM [cytotoxic, partial curve, poor fit].
With `COC(=O)C1=CN(c2ccc(OC)cc2OC)C(N)=C(C#N)C1c1ccccc1F` (centres undefined) the Potency was inconclusive: 1.64 µM [cytotoxic, full curve].
With `COc1ccc(CNC(=O)C(=O)N2CCC3(CC2)OCCN3S(=O)(=O)c2ccc(C)cc2)cc1` the Potency was inconclusive: 10.3 µM [cytotoxic, partial curve].
With `O=C(Nc1nc(-c2ccccn2)cs1)C12CC3CC(CC(O)(C3)C1)C2` the Potency was inconclusive: 2.31 µM [cytotoxic, full curve].
With `COc1ccc(Br)cc1/C=C/C(=O)c1ccc(NC(C)=O)cc1` the Potency was inconclusive: 11.6 µM [cytotoxic, partial curve, poor fit].
For `CCOc1ccc(CCNC(=O)c2ccccc2OCc2c(C)noc2C)cc1OCC`, the Potency was inconclusive: 0.326 µM [cytotoxic, full curve].
For `CN(C(=O)c1nn(C)c2c1CSc1ccccc1-2)c1ccc(F)cc1`, the Potency was “inactive”.
For `Cc1cc(C)cc(-n2c(SCC(=O)N3CCCCCC3)nc3c([nH]c4ccccc43)c2=O)c1`, the Potency was “inactive”.
With `OC(c1cc(-c2cccc(Cl)c2)nc2ccccc12)C1CCCCN1` (centres undefined) the Potency was inconclusive: 18.4 µM [cytotoxic, partial curve].
In the case of `O=C(Nc1cc(S(=O)(=O)N2CCOCC2)ccc1O)c1ccco1`, the Potency is reported as inconclusive: 29.1 µM [rising, single point].
With `Cc1cccc(C)c1NC(=O)Cn1nnnc1N` the Potency was inconclusive: 0.0058 µM [cytotoxic, full curve].
In the case of `CCc1ccc(-c2nnn(CCC(=O)OC)n2)cc1`, the Potency is reported as “inactive”.
With `Cc1ccc(C)c(C(=O)NC(C)CCc2ccccc2)c1` (centres undefined) the Potency was “inactive”.
For `CCC1(CC)NC(=O)N(CC(=O)OC(C)C(=O)Nc2ccc(NC(C)=O)cc2)C1=O` (centres undefined), the Potency was inconclusive: 20.6 µM [rising, partial curve, poor fit].
In the case of `COc1ccc(C(=O)N/N=C/C(C)c2ccccc2)cc1OC` (centres undefined), the Potency is reported as inconclusive: 35.5 µM [rising, single point].
For `Cc1ccc(C)n1-c1nc(=S)[nH][nH]1`, the Potency was “inactive”.
In the case of `Cc1cc(Cl)c(S(N)(=O)=O)cc1OCC(N)=O`, the Potency is reported as inconclusive: 7.31 µM [rising, partial curve, poor fit].
For `Cc1c(NC2=CC(=O)CCC2)c(=O)n(-c2ccccc2)n1C`, the Potency was inconclusive: 20.6 µM [rising, partial curve, poor fit].
In the case of `COC(=O)C1=C(C)N(c2cccc(OC)c2)C(=O)/C1=C\c1ccco1`, the Potency is reported as “inactive”.
In the case of `Cc1ccc(C(=O)NCc2ccccc2)cc1NC(=O)c1nsc2ccccc12`, the Potency is reported as inconclusive: 23.1 µM [cytotoxic, single point].
With `COc1ccc(S(=O)(=O)N(C)C[C@@H]2Oc3cc(Br)ccc3S(=O)(=O)N([C@H](C)CO)C[C@@H]2C)cc1` the Potency was inconclusive: 16.4 µM [cytotoxic, single point].
For `Cc1cc(CNC(=O)COc2c(F)c(F)cc(F)c2F)c2ccccc2n1`, the Potency was inconclusive: 29.1 µM [cytotoxic, single point].
In the case of `O=C(CCCSc1nc2ccccc2[nH]1)N1CCN(c2ccc([N+](=O)[O-])cc2)CC1`, the Potency is reported as inconclusive: 23.1 µM [cytotoxic, single point].
In the case of `CCc1ccc(NS(=O)(=O)c2ccc(OC)c(C)c2)cc1`, the Potency is reported as active: 18.4 µM.
With `COc1cccc(CN2CCN(Cc3[nH]c4ccccc4c3C)CC2CCO)c1` (centres undefined) the Potency was inconclusive: 18.4 µM [cytotoxic, single point].
For `Cc1ccc(NC(=O)c2oc3ccccc3c2NC(=O)C23CC4CC(CC(C4)C2)C3)cc1`, the Potency was inconclusive: 29.1 µM [rising, single point].
In the case of `NS(=O)(=O)c1ccc(CCNC(=O)CNC(=O)c2ccc(Br)o2)cc1`, the Potency is reported as inconclusive: 29.1 µM [rising, single point].
In the case of `COc1ccc(C(=N/O)/C(=N/O)c2ccc(OC)cc2)cc1`, the Potency is reported as “inactive”.
With `CC1CCCCC1NC(=O)COC(=O)c1ccc2c(c1)OCCO2` (centres undefined) the Potency was inconclusive: 29.1 µM [rising, single point].
In the case of `Cc1c(NC(=O)CN2C(=O)c3ccccc3C2=O)c(=O)n(-c2ccccc2)n1C`, the Potency is reported as inconclusive: 14.6 µM [rising, partial curve, poor fit].
In the case of `COc1cccc(/C=C/c2nc(C#N)c(NCC(C)C)o2)c1`, the Potency is reported as inconclusive: 32.6 µM [cytotoxic, single point].
For `COCCN(Cc1cc2cc(C)ccc2nc1Cl)C(=O)Nc1ccccc1OC`, the Potency was “inactive”.
In the case of `COCCN(C(=O)COC(=O)c1ccc(Cl)nc1)c1c(N)n(Cc2ccccc2)c(=O)[nH]c1=O`, the Potency is reported as “inactive”.
With `C=C(C)COc1ccc(-c2n[nH]c(C)c2-c2ccccc2)c(O)c1` the Potency was inconclusive: 29.1 µM [cytotoxic, single point].
With `O=[N+]([O-])c1ccc(Cl)cc1Sc1nc2ccccc2o1` the Potency was inconclusive: 29.1 µM [cytotoxic, single point].
In the case of `CS/C(N)=N/N=C/c1ccc([N+](=O)[O-])cc1`, the Potency is reported as “inactive”.
In the case of `COc1ccc(C(=O)c2[nH]c(N)c(C(=O)NCCc3c[nH]c4ccccc34)c2-c2c(F)cccc2Cl)cc1`, the Potency is reported as “inactive”.
With `O=C(Nc1ccccc1)c1ccc(NCc2cccnc2)c(S(=O)(=O)N2CCOCC2)c1` the Potency was “inactive”.
For `Cc1ccc2cccc(OC(=O)/C=C\c3ccccc3)c2n1`, the Potency was inconclusive: 18.4 µM [rising, single point].
For `Cc1cc(C)cc(N/C(N)=N/c2nc(C)cc(C)n2)c1`, the Potency was active: 20.6 µM.
For `COc1cccc2c1C1COC3C4CC(C(=O)O)C(C(C2)N13)N4C` (centres undefined), the Potency was active: 16.4 µM.
